Assay results as given in the supplement of paper PMC5949888.
Most values lie at the floor of the assay. Slopes are relative: functional sequences can read slightly below zero.

The substances below were run on Saccharomyces cerevisiae PS128 hsf1 delta, HSF1(1-493) fusion (assay: growth estimate (transactivation domain function in HSF1 fusion, heat-shock survival) (a.u. (slope of normalised read count over time)); higher = stronger growth at 37°C, i.e. more transactivation activity). Settings: library: random library.

Substance | growth estimate
DSINFHYILSYTRVWPLILG | < -0.25
RPSTNVAEVRA | < -0.25
SSVA | -0.25
STRWHDSSESGRMLPCSPGY | < -0.25
VGLNIMKN | < -0.25
IVCSPTAFS | -0.201
QKP | < -0.25
QYMWELIRKPEADASGPGA | -0.218
PGGSLYGHQRNSIEMVQFEQ | < -0.25
CAVVKCRCRNLCCAR | < -0.25
SGAIRHELRQTGTV | < -0.25
IEP | < -0.25
CESLAGAWPCQNLVQSSAPS | < -0.25
YASLRFQAVGICHGTFRW | < -0.25
EQRPNHASIFRREV | < -0.25
CCESAQLFGLGGGSFD | < -0.25
VLHYQLKSRVVDNLRRNLKT | < -0.25
VHACSFVGPFKTVRFHEAGG | < -0.25
GFDCYFSRLSLNHHHGELVC | < -0.25
FANAFP | < -0.25
RDVTRPGCGTLIPGFVAVPV | < -0.25
FRATLLVSSSSFIISGHRSS | < -0.25
PRGGRVGCYRVISPLADRSL | < -0.25

Substance | growth estimate
RIVEAPRTH | < -0.25
DDGRFLMDSPAVA | < -0.25
AEVSIFGQVG | < -0.25
RSEGALI | < -0.25
AETTGETEGPRL | < -0.25
TTQASSVGTLRTRVGTLIVG | < -0.25
WKTH | < -0.25
SVINLGSRKGRNHNVYTGHC | < -0.25
VLLIFPRTPTYLRRNMVWPI | < -0.25
KNGDKLSKKLTKGGRG | < -0.25
CCTLGKTL | < -0.25
DFFGTSSFAAYSDMPTLLVS | < -0.25
RTGVRDLSRAASASPNGGIS | < -0.25
MAQLAASLPRIYGGTGKDER | < -0.25
HWS | < -0.25
NTTQDQGSARV | < -0.25
TGRGI | < -0.25
NPEISGSLFNQGHASAESIK | < -0.25
VVVETCRVCGTI | < -0.25
RLRKN | -0.246
KTASLRRL | < -0.25
VLNGGVLKRLRGKRESFGPV | < -0.25
IQFDEILVVSILSVGSADVE | < -0.25

Some of the entries so far, with tabs.
Substance	growth estimate
DSINFHYILSYTRVWPLILG	< -0.25
SSVA	-0.25
STRWHDSSESGRMLPCSPGY	< -0.25
IVCSPTAFS	-0.201
QKP	< -0.25
QYMWELIRKPEADASGPGA	-0.218
CAVVKCRCRNLCCAR	< -0.25
SGAIRHELRQTGTV	< -0.25
IEP	< -0.25
CESLAGAWPCQNLVQSSAPS	< -0.25
YASLRFQAVGICHGTFRW	< -0.25
CCESAQLFGLGGGSFD	< -0.25
VLHYQLKSRVVDNLRRNLKT	< -0.25
VHACSFVGPFKTVRFHEAGG	< -0.25
GFDCYFSRLSLNHHHGELVC	< -0.25
FANAFP	< -0.25
RDVTRPGCGTLIPGFVAVPV	< -0.25
PRGGRVGCYRVISPLADRSL	< -0.25
DDGRFLMDSPAVA	< -0.25
AEVSIFGQVG	< -0.25
TTQASSVGTLRTRVGTLIVG	< -0.25
SVINLGSRKGRNHNVYTGHC	< -0.25
VLLIFPRTPTYLRRNMVWPI	< -0.25
KNGDKLSKKLTKGGRG	< -0.25
DFFGTSSFAAYSDMPTLLVS	< -0.25
RTGVRDLSRAASASPNGGIS	< -0.25
MAQLAASLPRIYGGTGKDER	< -0.25
HWS	< -0.25
TGRGI	< -0.25
NPEISGSLFNQGHASAESIK	< -0.25
VVVETCRVCGTI	< -0.25
RLRKN	-0.246
KTASLRRL	< -0.25
VLNGGVLKRLRGKRESFGPV	< -0.25
IQFDEILVVSILSVGSADVE	< -0.25

Random excerpt: 2 records from the list
Substance | growth estimate
RTGVRDLSRAASASPNGGIS | < -0.25
RIVEAPRTH | < -0.25

(next part)

Substance | growth estimate
IVAVTRSDVLNQGDPGTPIQ | < -0.25
IGDW | < -0.25
LGGYI | < -0.25
LYGGLIGTTVWKPSARDGRT | < -0.25
REYERSGALVSVTRLIHLDW | < -0.25
AVLGKA | < -0.25
VQCPVGSRTDAL | < -0.25
LVDIYYPGPGIGRGVNMARR | < -0.25
RFMNR | < -0.25
WHLCLSQRLDLTLL | < -0.25
GLD | < -0.25
APRKPAQVDLMGDSFFTGHR | < -0.25
ALG | < -0.25
ECGSALSRIASQLDLGGLFA | < -0.25
LYKDFNVRAPCNKLQCKFRA | < -0.25
VCGHSKSRPIGMGVTLSPVP | < -0.25
TGNYGCWYFHCVAATISTRS | < -0.25
IFIHDPRMGTRQWSLSTPTS | < -0.25
EGGIKPLFAKGVVSSADCRC | < -0.25
VWCEGSSQSACKTRHIRVMG | < -0.25
NAQAYGHVC | < -0.25
GERAAAPGR | < -0.25
KLWSRRQCRYFGPYVRFVSG | < -0.25

Substance | growth estimate
TCGNGISPSKLKYPGRRVAR | < -0.25
TFKD | < -0.25
FISSSRGAVHSHTLWLGDRG | < -0.25
ILVTYRLSNRR | < -0.25
GSYVADNQGDGTRLALPMR | < -0.25
HDRGIPSPQLVSKED | < -0.25
SWSRFKS | < -0.25
GYSKDWQFLLSESGRIFVSR | < -0.25
SVRFTPHTGGMGIGL | < -0.25
YGNLIPGRIWKGFLDAPHAL | < -0.25
LTGVLPEGPGTGRAVGRSAP | < -0.25
FKSPVTGAIQRRLGLSRRTQ | < -0.25
ILPLKVCRHPGGVRASKLNS | < -0.25
ILVYKSQCSGYV | < -0.25
LIRIL | < -0.25
DQRSNRFNSRK | < -0.25
FEFGKLRPGTRLTVGHRPEA | -0.0842
CVLRHFAPLCVRSQEGPTLV | < -0.25
FESMW | < -0.25
QYRASRVFKEHQTAVWGRPF | < -0.25
STETGVLPGYAHSEALTAGP | < -0.25
ISEGAPGAVQRRVSNRALYA | < -0.25
HEKRSTAVSTVLIHDRLRRA | < -0.25

Substance | growth estimate
GIRGLLG | < -0.25
WRVPTRARLQ | -0.245
LTSCHGN | < -0.25
VGERLPRDMRRSESQRENGQ | < -0.25
KSSAKTAGGTDLF | < -0.25
PYFEVDNWHLLSQTLGKGAG | -0.245
LSREPRAPPEETRVMGFLAG | < -0.25
FGHPRIRLARVNSCVERNCP | < -0.25
PRGRR | < -0.25
LTSRETAGIGTVKFGFTEAR | < -0.25
GTDKSTGRVVSVDLRSIHSG | < -0.25
RFECRLRRLCNCLITSVLGC | < -0.25
VNRDDAETYSLTSRQYSLYC | < -0.25
GWYVAKTPV | < -0.25
LAPGVP | < -0.25
QNKRIRQIYVSERKTTAQ | < -0.25
ATPLNGNR | < -0.25
GQSPNGGHNEAYL | < -0.25
SIRPYRLLDFGGRTSQPLSE | < -0.25
RSPVTNGLFIGSLP | < -0.25
TLPA | < -0.25
SVSDVSCSLNCPRIPEWT | < -0.25
KCSIAMCHEHGFIVRPRVAW | < -0.25

Substance | growth estimate
RIPYLRFIL | < -0.25
SEGGLGRWVGSITVVDGVTG | < -0.25
EKLEANAIYDNNALSISLYS | < -0.25
ETGGSRAGMAMNCGPPCHLS | < -0.25
VVYLYLPFKDVDS | < -0.25
LLVWLEVYVSAPLLVCPLAW | < -0.25
QSSVVRGTCTDYW | < -0.25
GSHFPPFRLRVRIIWSHNPP | < -0.25
TRLKINNIPCSRLWAGHEVH | < -0.25
HDPVVDKQNGHVIRFGASEI | < -0.25
CREFR | < -0.25
TNDAGLVPRGPTRTSSAMFW | -0.208
SNTKDSTETREV | < -0.25
VASSGIKAAALVTTQSGFLR | < -0.25
TQAGHGMCGSPTVVNGQLCI | < -0.25
AFDARNSLQRGGGGPGSLKI | -0.245
PRKRMKRQVRVSDKTAGFER | < -0.25
RTIGTHIKEDCRIARIKVRP | < -0.25
NFIYSHTGATSHAVEIITSW | < -0.25
PCSILRYINSRRAAGSWRSN | < -0.25
SYRYLL | < -0.25
MELHLVSTGITTYRVGRVNP | < -0.25
ELLPTGPPRCTCNTVRSK | < -0.25

Substance | growth estimate
RLVSWEC | < -0.25
FYRGQYLPYLHRGGSRIRVL | < -0.25
GPQTWLSFGLRDYGGSSDIL | < -0.25
RQSGYVERFPPSFPGETSGA | < -0.25
GMCGKSVYV | < -0.25
RFQV | < -0.25
SMICN | < -0.25
MLNGESSSVASVVKP | < -0.25
SGISLLTGNPRVKLSICGGC | < -0.25
YSAILEMCILAGSHPRGRPP | < -0.25
GLRLITL | -0.246
RESIRFTPVSGGLPPMRRML | < -0.25
CSAFFLG | < -0.25
GNRPAPGIRAPRFMCIHVPS | < -0.25
RGLNYIVRLVLVFASA | < -0.25
ARPLYVRC | < -0.25
TSNRPFHVPGVQQRRGDAFQ | < -0.25
PDLV | < -0.25
RGLLRDLCTYRCQSPPSPRP | < -0.25
